Measurements reported in the supplement of paper PMC11348887.
Where a name gives a salt, the structure may show the parent alone. Some of the results follow. Most values lie at the level of the controls, where differences are scatter.

What was measured:
Settings in all cases: 5 µM; treatment: days 7-14 after plating, readout day 21
[1] = system: hPSC-derived cortical neurons (WA09); experiment: nucleus area z-score vs screen plate; higher = larger nuclei (more mature)
[2] = system: hPSC-derived cortical neurons (WA09); experiment: total neurite length per nucleus (MAP2) z-score; higher = more neurite growth
[3] = system: hPSC-derived cortical neurons (WA09); experiment: nucleus roundness z-score vs screen plate; higher = rounder nuclei (more mature)
[4] = system: hPSC-derived cortical neurons (WA09); experiment: KCl-induced FOS+/EGR-1+ double-positive nuclei fraction z-score (KCl minus unstimulated); higher = stronger activity-induced IEG response

| Structure (SMILES) | nucleus area z-score [1] | total neurite length per nucleus (z-score) [2] | nucleus roundness z-score [3] | KCl-induced FOS+/EGR-1+ double-positive nuclei fraction z-score [4] |
| --- | --- | --- | --- | --- |
| CCN1CCN(C(=O)N[C@@H](C(=O)N[C@@H]2C(=O)N3[C@@H]2SC(C)(C)[C@@H]3C(=O)O)c2ccccc2)C(=O)C1=O [Piperacillin Sodium] | -0.0681 | -0.251 | 0.0332 | -0.0463 |
| O=C(O)C(S)=Cc1c[nH]c2ccc(F)cc12 | 2.93 | -0.721 | -0.497 | 0.739 |
| CCOC(=O)[C@H](CCc1ccccc1)N[C@H]1CCCN2CCC[C@@H](C(=O)O)N2C1=O [Cilazapril Monohydrate] | 0.0123 | 0.0463 | 0.36 | 0.974 |
| CCCCC(=O)N(Cc1ccc(-c2ccccc2-c2nnn[nH]2)cc1)[C@H](C(=O)O)C(C)C [Valsartan] | 0.0831 | 0.349 | 0.629 | 1.55 |
| OCCOc1ccc(/C(=C(/CCCl)c2ccccc2)c2ccccc2)cc1 [Ospemifene] | 0.31 | 0.316 | 0.884 | 1.7 |
| CCCCNc1ccc(C(=O)OCCN(C)C)cc1 [Tetracaine HCl] | -0.635 | 0.072 | -1.13 | -0.401 |
| O=C(c1ccc(F)c(F)c1Nc1ccc(I)cc1F)N1CC(O)([C@@H]2CCCCN2)C1 [Cobimetinib (GDC-0973_ RG7420)] | -0.364 | -1.08 | -1.8 | -0.593 |
| Cc1ccc(-n2sc(=O)n(Cc3ccc(F)cc3)c2=O)cc1 | 0.821 | -0.361 | -0.531 | -1.13 |
| CCCCNC(=O)NS(=O)(=O)c1ccc(C)cc1 [Tolbutamide] | 0.602 | 0.442 | 0.624 | 0.381 |
| CN(C)C(=O)c1ccc(S(=O)(=O)c2ccc(NC(=O)[C@@](C)(O)C(F)(F)F)c(Cl)c2)cc1 | 0.917 | 2.33 | 0.739 | 0.353 |
| O=c1[nH]cc(F)c(=O)[nH]1 [Fluorouracil (5-Fluoracil_ 5-FU)] | 0.976 | 0.253 | 0.473 | 0.283 |
| COc1cc(C(C)=O)ccc1O [Apocynin] | -0.0959 | 0.343 | 0.157 | 0.117 |
| C[C@H]1[C@H](NC(=O)/C(=N\OC(C)(C)C(=O)O)c2csc(N)n2)C(=O)N1S(=O)(=O)O [Aztreonam] | -0.695 | 0.499 | -1.3 | -0.33 |
| CCOC(=O)c1c2c3c(cccc3[nH]c1=O)C(=O)c1ccccc1-2 | -1.15 | -0.245 | -0.529 | -0.621 |
| CCOCc1nc2c(N)nc3ccccc3c2n1CC(C)(C)O [Resiquimod] | -0.361 | -0.263 | -0.0625 | 3.25 |
| CCOc1ccccc1OC(c1ccccc1)C1CNCCO1 (centres undefined) [Reboxetine mesylate] | -0.00458 | -0.167 | 1.18 | 0.58 |

Shown with tabs: 2 of the compounds above
Structure (SMILES)	nucleus area z-score [1]	total neurite length per nucleus (z-score) [2]	nucleus roundness z-score [3]	KCl-induced FOS+/EGR-1+ double-positive nuclei fraction z-score [4]
Cc1ccc(-n2sc(=O)n(Cc3ccc(F)cc3)c2=O)cc1	0.821	-0.361	-0.531	-1.13
CCCCNC(=O)NS(=O)(=O)c1ccc(C)cc1 [Tolbutamide]	0.602	0.442	0.624	0.381
